Source: paper PMC8143632

By UniProt entry, the sequences of proteins in these tests, tags left out.
UniProt Q96QT6: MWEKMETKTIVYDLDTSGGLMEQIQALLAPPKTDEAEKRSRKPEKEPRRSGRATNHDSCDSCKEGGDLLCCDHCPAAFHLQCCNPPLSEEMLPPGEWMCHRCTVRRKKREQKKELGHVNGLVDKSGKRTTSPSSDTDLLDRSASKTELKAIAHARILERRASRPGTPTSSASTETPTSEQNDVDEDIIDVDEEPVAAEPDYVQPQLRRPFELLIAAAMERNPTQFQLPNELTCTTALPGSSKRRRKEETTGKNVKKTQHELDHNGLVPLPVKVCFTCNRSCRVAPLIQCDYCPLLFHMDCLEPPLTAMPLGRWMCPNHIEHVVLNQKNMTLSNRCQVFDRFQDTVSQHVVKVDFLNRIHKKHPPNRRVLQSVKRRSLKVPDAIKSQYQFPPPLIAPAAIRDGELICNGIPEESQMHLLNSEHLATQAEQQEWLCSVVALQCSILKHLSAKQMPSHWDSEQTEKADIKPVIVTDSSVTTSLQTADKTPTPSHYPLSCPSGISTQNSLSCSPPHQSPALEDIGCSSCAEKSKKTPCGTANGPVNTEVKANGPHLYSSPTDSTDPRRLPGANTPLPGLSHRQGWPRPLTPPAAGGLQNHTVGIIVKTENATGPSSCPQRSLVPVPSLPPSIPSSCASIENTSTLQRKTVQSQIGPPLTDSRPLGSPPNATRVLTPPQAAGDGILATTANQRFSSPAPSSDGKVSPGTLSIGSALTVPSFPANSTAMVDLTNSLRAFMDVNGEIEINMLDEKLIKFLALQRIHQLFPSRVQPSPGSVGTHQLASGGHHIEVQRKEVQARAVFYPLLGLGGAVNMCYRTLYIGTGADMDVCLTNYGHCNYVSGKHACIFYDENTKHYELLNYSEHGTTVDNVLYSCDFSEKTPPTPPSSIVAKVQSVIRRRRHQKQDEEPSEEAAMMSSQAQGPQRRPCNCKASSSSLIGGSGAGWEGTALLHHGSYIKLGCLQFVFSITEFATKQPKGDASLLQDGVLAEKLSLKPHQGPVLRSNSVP
UniProt Q92769: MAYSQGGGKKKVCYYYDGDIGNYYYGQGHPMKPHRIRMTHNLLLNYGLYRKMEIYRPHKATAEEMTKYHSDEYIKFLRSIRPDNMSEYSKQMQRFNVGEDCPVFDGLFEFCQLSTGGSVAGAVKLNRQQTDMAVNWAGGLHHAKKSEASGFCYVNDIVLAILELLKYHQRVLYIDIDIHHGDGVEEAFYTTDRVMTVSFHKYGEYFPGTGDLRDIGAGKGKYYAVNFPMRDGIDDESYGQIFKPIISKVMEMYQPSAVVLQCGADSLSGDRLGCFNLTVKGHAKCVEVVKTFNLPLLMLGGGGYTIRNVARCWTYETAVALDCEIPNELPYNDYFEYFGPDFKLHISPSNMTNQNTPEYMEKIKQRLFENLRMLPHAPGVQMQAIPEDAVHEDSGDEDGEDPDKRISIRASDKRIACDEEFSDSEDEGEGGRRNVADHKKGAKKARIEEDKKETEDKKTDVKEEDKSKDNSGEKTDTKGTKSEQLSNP
UniProt Q9UBU8: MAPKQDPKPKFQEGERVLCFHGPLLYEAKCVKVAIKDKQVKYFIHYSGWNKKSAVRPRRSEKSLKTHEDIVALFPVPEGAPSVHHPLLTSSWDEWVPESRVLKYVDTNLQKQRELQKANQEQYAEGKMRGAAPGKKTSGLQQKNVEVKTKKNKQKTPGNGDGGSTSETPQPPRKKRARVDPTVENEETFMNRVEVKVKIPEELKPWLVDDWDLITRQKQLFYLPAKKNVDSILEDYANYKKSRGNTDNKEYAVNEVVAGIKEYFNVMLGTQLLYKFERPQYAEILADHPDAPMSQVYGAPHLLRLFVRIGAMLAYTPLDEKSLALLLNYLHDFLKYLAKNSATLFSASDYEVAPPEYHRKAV
UniProt Q13547: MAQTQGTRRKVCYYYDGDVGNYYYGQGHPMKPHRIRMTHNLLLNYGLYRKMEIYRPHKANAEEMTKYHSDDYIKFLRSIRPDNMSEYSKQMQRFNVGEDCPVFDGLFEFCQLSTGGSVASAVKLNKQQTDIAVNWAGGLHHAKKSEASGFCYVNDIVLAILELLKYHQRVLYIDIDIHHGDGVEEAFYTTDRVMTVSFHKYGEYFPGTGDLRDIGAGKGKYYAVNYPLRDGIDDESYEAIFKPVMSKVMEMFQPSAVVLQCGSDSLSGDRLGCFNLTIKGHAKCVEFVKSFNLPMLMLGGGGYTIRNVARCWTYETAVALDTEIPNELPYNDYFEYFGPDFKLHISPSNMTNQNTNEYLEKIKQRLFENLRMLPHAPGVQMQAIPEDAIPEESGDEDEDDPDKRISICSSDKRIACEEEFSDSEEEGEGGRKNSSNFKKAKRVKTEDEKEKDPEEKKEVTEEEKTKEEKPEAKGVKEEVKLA

Columns and labels:
Test in all cases: affinity purification with mass spectrometry; Halo-tagged bait stably expressed in Flp-In-293 cells; lysate with HL-SAN nuclease 2 U/ml for 2 h at 4 °C; bait captured on Magne HaloTag Beads, eluted with AcTEV Protease; MudPIT; enrichment over cells without transgene by QSPEC (Z-statistic >= 3 and log2 fold change >= 2)
[1] = molecular target: Halo-tagged PHF12 (human) (UniProt Q96QT6)
[2] = molecular target: Halo-tagged HDAC2 (human) (UniProt Q92769)
[3] = molecular target: T1, Halo-tagged BRMS1 (human) (UniProt Q9HCU9)
T1 sequence: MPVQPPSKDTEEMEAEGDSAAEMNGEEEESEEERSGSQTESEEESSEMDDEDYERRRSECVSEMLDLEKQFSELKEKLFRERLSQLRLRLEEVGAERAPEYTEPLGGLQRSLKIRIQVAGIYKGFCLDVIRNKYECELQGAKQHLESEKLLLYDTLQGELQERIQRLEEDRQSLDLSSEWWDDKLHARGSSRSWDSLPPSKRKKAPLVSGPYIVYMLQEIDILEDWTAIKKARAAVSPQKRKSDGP

[4] = molecular target: Halo-tagged MORF4L1 (human) (UniProt Q9UBU8)
[5] = molecular target: Halo-tagged HDAC1 (human) (UniProt Q13547)
HaloTag-SUDS3 (human) = molecular target: T2, HaloTag-SUDS3 (human) (UniProt Q9H7L9)
T2 sequence: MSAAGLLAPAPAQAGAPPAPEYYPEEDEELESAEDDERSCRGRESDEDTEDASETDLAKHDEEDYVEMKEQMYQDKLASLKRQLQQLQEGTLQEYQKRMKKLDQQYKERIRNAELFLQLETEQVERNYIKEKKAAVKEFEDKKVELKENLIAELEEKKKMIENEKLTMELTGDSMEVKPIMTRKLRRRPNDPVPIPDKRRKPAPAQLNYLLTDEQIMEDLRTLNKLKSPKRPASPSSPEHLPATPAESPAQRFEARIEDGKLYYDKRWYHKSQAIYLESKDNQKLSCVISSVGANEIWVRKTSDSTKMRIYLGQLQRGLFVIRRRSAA

[6] = molecular target: T3, Halo-tagged BRMS1L (human) (UniProt Q5PSV4)
T3 sequence: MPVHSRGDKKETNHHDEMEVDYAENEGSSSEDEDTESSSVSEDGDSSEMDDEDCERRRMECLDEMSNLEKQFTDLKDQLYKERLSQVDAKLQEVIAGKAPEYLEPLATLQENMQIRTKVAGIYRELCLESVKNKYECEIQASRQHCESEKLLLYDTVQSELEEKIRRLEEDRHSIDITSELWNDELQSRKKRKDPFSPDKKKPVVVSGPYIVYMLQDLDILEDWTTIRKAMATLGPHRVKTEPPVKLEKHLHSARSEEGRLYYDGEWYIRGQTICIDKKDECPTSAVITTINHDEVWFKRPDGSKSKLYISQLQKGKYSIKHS

binding [1]: binds
binding [2]: binds
binding [3]: binds
binding [4]: binds
binding [5]: binds
binding (HaloTag-SUDS3 (human)): binds
binding [6]: binds
Substance: SIN3B (native) (from UniProt O75182-2)

Results are given in words; binding and its absence hold for the method and conditions named. Binding seen in cells or lysates may run through a third protein. A yes stands for co-enrichment or nearness to the bait. Other partners may have been found. For some of these results: Sequences can lack the tags named with a protein.
